Data source: PubChem BioAssay AID743121 (NCATS, 2013)

- Purpose: 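Genes whose silencing strengthens cell killing by camptothecin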 (primary screen)
- Cell system: MDA-MB-231 cells, a human breast cancer line
- Reagents: single siRNA against human genes, 20 nM siRNA (0.8 pmol per well)
- Time to read-out: 120 h (drug added 48 h after transfection, read 72 h later)
- Conditions: camptothecin 20 nM (about EC30) for 72 h; vehicle 0.1% DMSO in parallel plates
- Read-out: 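CellTiter-Glo ATP signal, scaled to control siRNA as percent viability; sensitisation given as log2 of untreated divided by camptothecin-treated viability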
- Scale: log2 vehicle/camptothecin viability: higher = stronger sensitisation to camptothecin; viability with camptothecin and viability without drug: higher = more viable cells
- Hit rule: 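Active genes have an RSA gene-level p-value below 0.001, computed from the ratios of their separate siRNAs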
The deposit covers about 26,000 reagents; below is a part drawn at random. Of all reagents, 167 (0.63%) were called active. 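Calls are per gene from RSA p-values that are not deposited; an individual active-marked siRNA can sensitise only weakly.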 The numbers tell different reagents against one gene apart.

| Gene | reagent | log2 vehicle/camptothecin viability | viability with camptothecin (% of control) | viability without drug (% of control) | activity call |
| --- | --- | --- | --- | --- | --- |
| GRIPAP1 (GRIP1 associated protein 1) | 1 | -0.283 | 67.1 | 55.1 | inactive |
| GRIPAP1 (GRIP1 associated protein 1) | 2 | 0.183 | 84.1 | 95.5 | inactive |
| GRIPAP1 (GRIP1 associated protein 1) | 3 | -0.14 | 93.6 | 85 | inactive |
| GRIPAP1 (GRIP1 associated protein 1) | 4 | 1.6 | 17 | 51.6 | inactive |
| YWHAG | 1 | -0.131 | 105 | 96.3 | inactive |
| YWHAG | 2 | -0.186 | 103 | 90.5 | inactive |
| YWHAG | 3 | 0.0684 | 41.4 | 43.4 | inactive |
| YWHAG | 4 | -0.503 | 109 | 76.7 | inactive |
| PKD1 | 1 | -0.301 | 53.2 | 43.2 | inactive |
| PKD1 | 2 | 0.0954 | 93.2 | 99.6 | inactive |
| PKD1 | 3 | 0.0273 | 89.1 | 90.8 | inactive |
| PKD1 | 4 | -0.291 | 127 | 104 | inactive |
| PNRC2 (proline rich nuclear receptor coactivator 2) | 1 | 0.000233 | 101 | 101 | inactive |
| PNRC2 (proline rich nuclear receptor coactivator 2) | 2 | -0.388 | 106 | 80.8 | inactive |
| PNRC2 (proline rich nuclear receptor coactivator 2) | 3 | -0.326 | 95.5 | 76.2 | inactive |
| PNRC2 (proline rich nuclear receptor coactivator 2) | 4 | -0.0812 | 106 | 100 | inactive |
| CCNG2 (cyclin G2) | 1 | -0.138 | 95.9 | 87.2 | inactive |
| CCNG2 (cyclin G2) | 2 | -0.12 | 91.4 | 84.1 | inactive |
| CCNG2 (cyclin G2) | 3 | -0.308 | 110 | 88.8 | inactive |
| CCNG2 (cyclin G2) | 4 | -0.215 | 60.2 | 51.9 | inactive |
| CACNG1 (calcium voltage-gated channel auxiliary subunit gamma 1) | 1 | 0.0938 | 37.9 | 40.4 | inactive |
| CACNG1 (calcium voltage-gated channel auxiliary subunit gamma 1) | 2 | -0.128 | 86 | 78.7 | inactive |
| CACNG1 (calcium voltage-gated channel auxiliary subunit gamma 1) | 3 | -0.283 | 89 | 73.1 | inactive |
| CACNG1 (calcium voltage-gated channel auxiliary subunit gamma 1) | 4 | 0.159 | 71.3 | 79.6 | inactive |
| ABCE1 (ATP binding cassette subfamily E member 1) | 1 | -0.122 | 60.4 | 55.5 | inactive |
| ABCE1 (ATP binding cassette subfamily E member 1) | 2 | -0.285 | 62.4 | 51.2 | inactive |
| ABCE1 (ATP binding cassette subfamily E member 1) | 3 | -0.479 | 59.2 | 42.5 | inactive |
| GAB2 (GRB2 associated binding protein 2) | 1 | 0.0568 | 72.7 | 75.7 | inactive |
| GAB2 (GRB2 associated binding protein 2) | 2 | -0.271 | 46.3 | 38.4 | inactive |
| GAB2 (GRB2 associated binding protein 2) | 3 | 0.693 | 27.6 | 44.6 | inactive |
| GAB2 (GRB2 associated binding protein 2) | 4 | -0.486 | 84.1 | 60 | inactive |
| ATP12A (ATPase H+/K+ transporting non-gastric alpha2 subunit) | 1 | -0.23 | 63.8 | 54.4 | inactive |
| ATP12A (ATPase H+/K+ transporting non-gastric alpha2 subunit) | 2 | -0.205 | 105 | 90.9 | inactive |
| ATP12A (ATPase H+/K+ transporting non-gastric alpha2 subunit) | 3 | 0.0927 | 79.9 | 85.2 | inactive |
| ATP12A (ATPase H+/K+ transporting non-gastric alpha2 subunit) | 4 | -0.139 | 48.5 | 44.1 | inactive |
| IL2RB (interleukin 2 receptor subunit beta) | 1 | -0.199 | 73.8 | 64.2 | inactive |
| IL2RB (interleukin 2 receptor subunit beta) | 2 | 0.516 | 35.3 | 50.5 | inactive |
| IL2RB (interleukin 2 receptor subunit beta) | 3 | -0.237 | 100 | 84.9 | inactive |
| F2RL2 (coagulation factor II thrombin receptor like 2) | 1 | -0.352 | 73.3 | 57.5 | inactive |
| F2RL2 (coagulation factor II thrombin receptor like 2) | 2 | -0.312 | 84 | 67.6 | inactive |
| F2RL2 (coagulation factor II thrombin receptor like 2) | 3 | -0.416 | 85.7 | 64.2 | inactive |
| F2RL2 (coagulation factor II thrombin receptor like 2) | 4 | -0.528 | 58.4 | 40.5 | inactive |
| PIK3CB | 1 | -0.27 | 121 | 100 | inactive |
| PIK3CB | 2 | 0.154 | 27.4 | 30.5 | inactive |
| PIK3CB | 3 | -0.177 | 75.2 | 66.5 | inactive |
| PIK3CB | 4 | -0.195 | 103 | 90.3 | inactive |
| PIMREG (PICALM interacting mitotic regulator) | 1 | -0.243 | 91.6 | 77.4 | inactive |
| PIMREG (PICALM interacting mitotic regulator) | 2 | -0.456 | 101 | 73.5 | inactive |
| PIMREG (PICALM interacting mitotic regulator) | 3 | -0.385 | 99.6 | 76.2 | inactive |
| PIMREG (PICALM interacting mitotic regulator) | 4 | -0.186 | 51.5 | 45.3 | inactive |
| ZNRF2 (zinc and ring finger 2) | 1 | 0.159 | 49.4 | 55.1 | inactive |
| ZNRF2 (zinc and ring finger 2) | 2 | 1.48 | 29 | 80.7 | inactive |
| ZNRF2 (zinc and ring finger 2) | 3 | -0.457 | 85.1 | 62 | inactive |
| TBK1 (TANK binding kinase 1) | 1 | -0.236 | 54.9 | 46.6 | inactive |
| TBK1 (TANK binding kinase 1) | 2 | -0.266 | 101 | 84.3 | inactive |
| TBK1 (TANK binding kinase 1) | 3 | 0.105 | 70.7 | 76.1 | inactive |
| TBK1 (TANK binding kinase 1) | 4 | -0.123 | 94.2 | 86.5 | inactive |
| LONRF2 (LON peptidase N-terminal domain and ring finger 2) | 1 | 0.0635 | 64.5 | 67.5 | inactive |
| LONRF2 (LON peptidase N-terminal domain and ring finger 2) | 2 | -0.075 | 79.4 | 75.4 | inactive |
| LONRF2 (LON peptidase N-terminal domain and ring finger 2) | 3 | -0.113 | 84.4 | 78.1 | inactive |
| LONRF2 (LON peptidase N-terminal domain and ring finger 2) | 4 | -0.465 | 72.4 | 52.4 | inactive |
| CSMD1 (CUB and Sushi multiple domains 1) | 1 | -0.173 | 108 | 95.9 | inactive |
| CSMD1 (CUB and Sushi multiple domains 1) | 2 | -0.524 | 72.7 | 50.6 | inactive |
| CSMD1 (CUB and Sushi multiple domains 1) | 3 | -0.37 | 85.1 | 65.8 | inactive |
| CSMD1 (CUB and Sushi multiple domains 1) | 4 | -0.175 | 107 | 94.7 | inactive |
| TRIO (trio Rho guanine nucleotide exchange factor) | 1 | 0.0678 | 72.8 | 76.3 | inactive |
| TRIO (trio Rho guanine nucleotide exchange factor) | 2 | -0.351 | 113 | 88.3 | inactive |
| TRIO (trio Rho guanine nucleotide exchange factor) | 3 | -0.0491 | 103 | 99.2 | inactive |
| TRIO (trio Rho guanine nucleotide exchange factor) | 4 | -0.39 | 114 | 86.8 | inactive |

9 neighbouring entries from above:
| Gene | reagent | log2 vehicle/camptothecin viability | viability with camptothecin (% of control) | viability without drug (% of control) | activity call |
| --- | --- | --- | --- | --- | --- |
| YWHAG | 4 | -0.503 | 109 | 76.7 | inactive |
| PKD1 | 1 | -0.301 | 53.2 | 43.2 | inactive |
| PKD1 | 2 | 0.0954 | 93.2 | 99.6 | inactive |
| PKD1 | 3 | 0.0273 | 89.1 | 90.8 | inactive |
| PKD1 | 4 | -0.291 | 127 | 104 | inactive |
| PNRC2 (proline rich nuclear receptor coactivator 2) | 1 | 0.000233 | 101 | 101 | inactive |
| PNRC2 (proline rich nuclear receptor coactivator 2) | 2 | -0.388 | 106 | 80.8 | inactive |
| PNRC2 (proline rich nuclear receptor coactivator 2) | 3 | -0.326 | 95.5 | 76.2 | inactive |
| PNRC2 (proline rich nuclear receptor coactivator 2) | 4 | -0.0812 | 106 | 100 | inactive |
